This is an account of results in publication PMC6884549, “Alkyladenine DNA glycosylase associates with transcription elongation to coordinate DNA repair with gene expression” (Nature Communications, 2019).

Protein sequences, listed by entry. Tags and fused reporters are not part of them. Lines headed by an entry give the natural chain unless they say otherwise; changes in a name come on top.
UniProt P29372: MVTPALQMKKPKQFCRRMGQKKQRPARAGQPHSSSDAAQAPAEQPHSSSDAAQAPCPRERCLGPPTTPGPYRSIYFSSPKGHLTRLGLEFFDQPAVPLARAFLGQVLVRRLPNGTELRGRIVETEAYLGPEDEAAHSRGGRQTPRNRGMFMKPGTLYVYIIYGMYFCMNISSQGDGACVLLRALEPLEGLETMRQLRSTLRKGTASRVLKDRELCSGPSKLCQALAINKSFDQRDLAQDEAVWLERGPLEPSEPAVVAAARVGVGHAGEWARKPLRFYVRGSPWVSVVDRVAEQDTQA
UniProt P12004: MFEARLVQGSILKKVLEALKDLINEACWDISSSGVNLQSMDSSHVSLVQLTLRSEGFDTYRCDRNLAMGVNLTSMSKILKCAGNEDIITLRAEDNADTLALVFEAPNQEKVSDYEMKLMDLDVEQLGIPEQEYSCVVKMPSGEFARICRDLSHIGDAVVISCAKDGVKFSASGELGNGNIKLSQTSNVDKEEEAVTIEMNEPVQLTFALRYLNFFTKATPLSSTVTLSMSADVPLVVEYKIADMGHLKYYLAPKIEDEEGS

The target of this assay is FLAG-tagged AAG (human) (UniProt P29372). The assay can be described thus: affinity purification with mass spectrometry; FLAG-AAG from transfected HEK293T (mock or 2 mM MMS for 1 h); 1 mg extract on FLAG M2 resin in buffer A1 (20 mM HEPES pH 7.9, 140 mM NaCl, 0.01% NP-40) 2 h at 4 °C, eluted with 3xFLAG peptide, LC/MS-MS; empty FLAG vector as control.

These are yes or no findings as the source states them, for the method shown. Binding seen in cells or lysates may run through a third protein. A yes stands for co-enrichment or nearness to the bait. Other partners may have been found.

In the case of “PCNA, endogenous (from UniProt P12004 1-261)”, the binding result is on record as “binds”.
